Our source for the binding values is article PMC7918530.

Sequences of proteins named here, by UniProt entry; tags and fusion partners are left off.
UniProt Q7TP98: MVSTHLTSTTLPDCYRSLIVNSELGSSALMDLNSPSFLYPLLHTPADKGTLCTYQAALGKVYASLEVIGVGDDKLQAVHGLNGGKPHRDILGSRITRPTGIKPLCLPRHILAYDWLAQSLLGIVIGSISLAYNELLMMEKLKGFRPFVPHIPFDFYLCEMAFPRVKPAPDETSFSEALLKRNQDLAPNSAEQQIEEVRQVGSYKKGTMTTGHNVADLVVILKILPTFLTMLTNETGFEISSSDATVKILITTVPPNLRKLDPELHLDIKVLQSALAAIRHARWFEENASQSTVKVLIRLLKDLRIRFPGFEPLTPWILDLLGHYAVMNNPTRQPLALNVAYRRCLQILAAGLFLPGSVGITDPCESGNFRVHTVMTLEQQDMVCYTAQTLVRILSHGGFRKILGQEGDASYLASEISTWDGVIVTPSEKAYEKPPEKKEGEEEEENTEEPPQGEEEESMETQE
UniProt Q8CH84: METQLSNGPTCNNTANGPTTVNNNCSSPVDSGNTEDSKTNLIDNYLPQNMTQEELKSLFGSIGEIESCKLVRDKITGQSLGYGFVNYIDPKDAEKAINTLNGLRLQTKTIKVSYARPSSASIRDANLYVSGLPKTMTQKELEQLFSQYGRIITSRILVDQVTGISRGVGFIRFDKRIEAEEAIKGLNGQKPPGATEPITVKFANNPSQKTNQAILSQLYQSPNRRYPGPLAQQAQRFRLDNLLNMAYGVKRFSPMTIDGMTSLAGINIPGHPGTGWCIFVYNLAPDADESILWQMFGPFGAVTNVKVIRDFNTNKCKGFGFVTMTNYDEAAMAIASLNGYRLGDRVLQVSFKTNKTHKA
UniProt O09032: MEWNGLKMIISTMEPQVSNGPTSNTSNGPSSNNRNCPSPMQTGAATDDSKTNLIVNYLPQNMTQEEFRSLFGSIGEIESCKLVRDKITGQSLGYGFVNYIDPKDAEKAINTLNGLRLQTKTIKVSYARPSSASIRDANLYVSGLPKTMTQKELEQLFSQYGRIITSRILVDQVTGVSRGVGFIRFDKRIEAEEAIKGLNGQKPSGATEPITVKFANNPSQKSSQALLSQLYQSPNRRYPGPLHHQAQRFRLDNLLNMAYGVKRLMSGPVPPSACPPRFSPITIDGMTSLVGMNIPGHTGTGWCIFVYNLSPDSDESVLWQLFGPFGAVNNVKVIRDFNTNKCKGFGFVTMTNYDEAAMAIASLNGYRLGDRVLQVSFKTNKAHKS

No constants are given. Whether binding was seen depends on the method and setting. In cells and extracts the contact can be indirect. These calls come from enrichment with a bait or labelling near it, and not all partners need be listed.

This assay concerns the target T1, Upf1 (rat (endogenous in PC12 cells and sympathetic neurons)).
T1 sequence: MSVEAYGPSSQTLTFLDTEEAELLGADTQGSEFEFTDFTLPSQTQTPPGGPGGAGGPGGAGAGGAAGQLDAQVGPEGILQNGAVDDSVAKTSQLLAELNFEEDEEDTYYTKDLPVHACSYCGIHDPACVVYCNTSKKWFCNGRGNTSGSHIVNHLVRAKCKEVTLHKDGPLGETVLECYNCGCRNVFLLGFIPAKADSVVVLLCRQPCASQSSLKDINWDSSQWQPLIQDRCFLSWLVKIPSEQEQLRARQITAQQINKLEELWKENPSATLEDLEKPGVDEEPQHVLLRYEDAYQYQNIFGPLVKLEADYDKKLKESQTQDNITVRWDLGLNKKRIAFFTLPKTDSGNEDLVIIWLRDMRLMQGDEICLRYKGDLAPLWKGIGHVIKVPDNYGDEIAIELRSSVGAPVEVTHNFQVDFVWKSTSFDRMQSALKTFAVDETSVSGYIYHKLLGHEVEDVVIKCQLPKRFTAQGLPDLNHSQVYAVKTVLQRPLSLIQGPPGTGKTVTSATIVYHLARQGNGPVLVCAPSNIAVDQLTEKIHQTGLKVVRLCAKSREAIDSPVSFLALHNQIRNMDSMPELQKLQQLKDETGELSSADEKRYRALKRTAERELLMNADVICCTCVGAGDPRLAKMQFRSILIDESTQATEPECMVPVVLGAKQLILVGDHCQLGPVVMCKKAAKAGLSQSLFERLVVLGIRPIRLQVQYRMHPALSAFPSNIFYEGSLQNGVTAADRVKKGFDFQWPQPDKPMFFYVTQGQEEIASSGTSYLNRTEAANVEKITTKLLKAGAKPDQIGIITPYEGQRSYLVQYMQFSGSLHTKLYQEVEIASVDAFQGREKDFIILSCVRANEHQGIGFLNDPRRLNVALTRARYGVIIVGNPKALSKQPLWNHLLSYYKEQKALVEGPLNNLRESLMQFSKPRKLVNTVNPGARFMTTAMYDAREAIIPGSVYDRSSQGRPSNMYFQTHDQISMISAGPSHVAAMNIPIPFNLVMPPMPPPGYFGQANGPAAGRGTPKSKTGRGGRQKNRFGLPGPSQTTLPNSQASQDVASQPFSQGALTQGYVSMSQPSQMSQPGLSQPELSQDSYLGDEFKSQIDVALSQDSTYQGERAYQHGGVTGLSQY
Nature of the assay: affinity purification with mass spectrometry; Upf1 immuno-complexes precipitated from 20x10^6 PC12 cells, naive or differentiated with NGF for 4 days; on-bead tryptic digestion, oxygen18 differential labeling, nano LC-MS/MS.
With “interleukin enhancer-binding factor 2 (from UniProt Q7TP98 1-463)”, the binding entry is given as “binds”.
As to “ELAV-like protein 2 (from UniProt Q8CH84 1-359)”, the binding result was “binds”.
As to “ELAV-like protein 4 (HuD) (from UniProt O09032 1-385)”, the binding entry was “binds”.
